Results are given in words; binding and its absence hold for the method and conditions named. Some binding calls cover weakened binding; strength is not graded here. One block for each binder: values may come before it.
Biological target: mouse BCMA-MFC (BCMA with C-terminal mFc tag) (mouse)
Test: SPR, 25 C

binding: binds
B1: mAb16711 (antibody, V domains shown)
VH: QVQLVESGGGVVQPGRSLRLSCAASGFTFSTYGIHWVRQAPGKGLEWVAVILHDGSSNYYAESVKGRFIISRDNSKNTLYLQMNSLRAEDTALYYCTKRYSEAAGPNWFDPWGQGTLVTVSS
VL: DIQMTQSPSSVSASVGDRVTITCRASRGISSWLAWYQQKPGKAPKLLIHAASSLQSGVPSRFSGSGSGTDFTLTISSLQPEDFATYYCQQAISFPFTFGPGTKVDIK

binding: binds
B2: mAb16747 (REGN4515) (antibody, V domains shown)
VH: QVQLVESGGGLVKPGGSLRLSCAASGFTFSDYYISWIRQAPGKGLEWVSYISSSGSSIKYADSVKGRFTISRDNAKNSLYLQMNSLRAEDTAVYYCAREGGNYGMDVWGQGTTVTVSS
VL: DIQMTQSPSSVSASVGDRVTITCRASQGINNWLVWYQQKPGKAPKLLIYAATSLQSGVPSRFSGSGSGTDFTLTISSLQPEDFATYYCQQANSFPPTFGQGTKLEIK

binding: binds
B3: mAb16732 (REGN4514) (antibody, V domains shown)
VH: EVQLVESGGGLVQPGRSLRLSCAASGFTFDDYAMHWVRQAPGKGLEWVSGISWNSGNMGYADSVKGRFTISRDNAKNSLFLQMHSLRAEDTAFYYCAKVRLTAFDFWGQGTLVTVSS
VL: DIQMTQSPSSLSASVGDRVTITCRTSQSIGNYLNWFQQKPGKAPKLLIYTASSLQNGVPSRFTGSGSGTDFTLTISSLQPEDFVIYYCQQSFSTPYTFGQGTKLEIK

Source: patent publication US20220306758A1
